Experimental data reported in publication PMC7460216 (Marine Drugs, 2020).

System: panel of human tumour cell lines (NCI 60 cell-line panel)
Conditions: preliminary single dose (10 μM) testing
Description: Protocols of testing at the DTP, NCI have been described elsewhere.

## CCCCCNC1[C@@H]2[N+]3=C4C5=C(NCC[C@@]51[C@@H](O)[C@@H](Br)C2(O)O)C(=O)c1[nH]cc(c14)CC3 (some centres unmarked) [Compound 6, Aminopentane Discorhabdin C Dihydrate Adduct]
  delta of mean growth: 33.70
  range of growth: 63.59
